Reference: patent publication US6004959A, “Alkyloxyamino substituted fluorenones and their use as protein kinase-C inhibitors” (Hoechst Marion Roussel, Inc., priority 1997, dated 1999)
Where a name gives a salt, the structure may show the parent alone. At least one compound was matched to its structure with a doubt left.

Target: Protein kinase C (PKC)
Assay: Protein kinase C assay (96-well, H1 histone phosphorylation, 32P-ATP)
Assay type: biochemical
Settings: PKC partially purified from rat brain; H1 histone 200 μg, 50 μM ATP, 5-7 min, room temperature; estimated error of IC50 less than 10%
Protocol: Protein kinase C (PKC) was partially purified from the cytosol of rat brains as described by […]., Thromb. Res. 44:649-660, 1986. After removing the brains, all manipulations were carried out at 4° C. Briefly, the cerebellum was removed from 8-10 rat brains and each brain was then homogenized in 9 ml sucrose/EDTA (0.32 M sucrose, 1 mM EDTA, 5 mM Tris, pH 7.4). The pooled homogenate was then centrifuged at 1000×g for 10 min at 4° C., the pellet resuspended in the same volume of fresh sucrose/EDTA and recentrifuged at 1000×g for 10 min. at 4° C. The supernatants from each of these spins was pooled and centrifuged at 25,700×g for 30 min. at 4° C., and the resulting pellet homogenized in 20 ml of buffer A. (20 mM Tris pH 7.5, 0.1 mM calcium chloride, 0.4 mM leupeptin), at 4° C. Membrane associated PKC was then pelleted by centrifugation at 45,700×g at 4° C. for 15 min. and resuspended in 20 ml of buffer A. This step was repeated for a total of 3 centrifugations, discarding the supernatants and finally resuspending the pellet in 20 ml of buffer B (20 mM Tris pH 7.5, 1 mM EGTA, 1 mM EDTA, and 0.01 mM leupeptin) and stirring on ice for 30 min. Disassociated PKC was then collected by centrifuging at 45,700×g at 4° C. for 15 min. The pellet was discarded and the supernatant centrifuged at 100,000×g at 4° C. for 60 min. […]

SMILES: CCCOc1cc(OC)c2c(c1)C(=O)c1cccc(OCCN3CCCC3)c1-2 [I.D. No. 105,290, 5-(2-pyrrolidinyl-ethoxy)-4-methoxy-2-propyloxy-fluoren-9-one hydrochloride]
- IC50: 460 nM
